No constants are given. Whether binding was seen depends on the method and setting. In cells and extracts the contact can be indirect. Some results given as binding are weak or reduced against the parent protein; the word gives no strength. For some of these results: Tags and fused reporters may be left off the sequences shown.

Chains of the proteins cited; added tags and fusions are not shown. Residues count along the entry.
UniProt Q13485: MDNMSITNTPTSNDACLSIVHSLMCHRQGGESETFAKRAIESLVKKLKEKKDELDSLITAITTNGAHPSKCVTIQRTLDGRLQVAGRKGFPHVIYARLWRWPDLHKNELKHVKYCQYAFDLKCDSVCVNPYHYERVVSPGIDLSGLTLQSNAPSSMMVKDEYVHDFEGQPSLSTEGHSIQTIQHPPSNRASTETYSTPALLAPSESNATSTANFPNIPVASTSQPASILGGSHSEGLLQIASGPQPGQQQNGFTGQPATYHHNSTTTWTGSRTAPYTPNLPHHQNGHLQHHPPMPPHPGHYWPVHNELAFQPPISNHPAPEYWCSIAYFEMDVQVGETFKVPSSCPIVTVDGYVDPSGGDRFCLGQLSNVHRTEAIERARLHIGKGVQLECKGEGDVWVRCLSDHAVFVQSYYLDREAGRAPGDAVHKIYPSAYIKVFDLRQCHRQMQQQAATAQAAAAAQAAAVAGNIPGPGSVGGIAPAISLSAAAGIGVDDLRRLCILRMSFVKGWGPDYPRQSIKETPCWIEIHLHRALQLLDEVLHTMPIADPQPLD
UniProt O15105: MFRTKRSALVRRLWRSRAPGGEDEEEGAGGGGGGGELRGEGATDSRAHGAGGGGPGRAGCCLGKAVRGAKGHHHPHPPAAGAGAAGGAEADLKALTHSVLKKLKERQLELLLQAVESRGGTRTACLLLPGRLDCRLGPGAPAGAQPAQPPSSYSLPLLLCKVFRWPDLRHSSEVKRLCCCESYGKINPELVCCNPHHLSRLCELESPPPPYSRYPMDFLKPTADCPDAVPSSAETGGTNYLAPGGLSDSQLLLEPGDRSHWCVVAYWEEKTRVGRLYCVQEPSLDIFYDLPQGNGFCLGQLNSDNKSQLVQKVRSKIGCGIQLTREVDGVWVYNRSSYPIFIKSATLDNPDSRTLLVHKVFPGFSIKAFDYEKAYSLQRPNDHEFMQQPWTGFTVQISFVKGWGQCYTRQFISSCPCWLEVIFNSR
UniProt P37023, residues 22-503: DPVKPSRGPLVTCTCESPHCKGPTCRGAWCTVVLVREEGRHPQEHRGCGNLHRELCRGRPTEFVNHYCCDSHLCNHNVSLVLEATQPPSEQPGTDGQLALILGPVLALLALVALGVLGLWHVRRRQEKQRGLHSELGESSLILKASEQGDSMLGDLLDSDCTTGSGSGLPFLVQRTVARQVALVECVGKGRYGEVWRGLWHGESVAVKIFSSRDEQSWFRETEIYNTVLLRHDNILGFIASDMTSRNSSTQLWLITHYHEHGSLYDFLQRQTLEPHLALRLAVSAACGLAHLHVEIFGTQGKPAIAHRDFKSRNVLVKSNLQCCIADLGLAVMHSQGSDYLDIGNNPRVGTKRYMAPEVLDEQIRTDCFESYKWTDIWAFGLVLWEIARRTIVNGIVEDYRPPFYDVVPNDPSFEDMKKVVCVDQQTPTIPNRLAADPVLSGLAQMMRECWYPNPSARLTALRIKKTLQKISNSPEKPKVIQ
UniProt Q9GZV5: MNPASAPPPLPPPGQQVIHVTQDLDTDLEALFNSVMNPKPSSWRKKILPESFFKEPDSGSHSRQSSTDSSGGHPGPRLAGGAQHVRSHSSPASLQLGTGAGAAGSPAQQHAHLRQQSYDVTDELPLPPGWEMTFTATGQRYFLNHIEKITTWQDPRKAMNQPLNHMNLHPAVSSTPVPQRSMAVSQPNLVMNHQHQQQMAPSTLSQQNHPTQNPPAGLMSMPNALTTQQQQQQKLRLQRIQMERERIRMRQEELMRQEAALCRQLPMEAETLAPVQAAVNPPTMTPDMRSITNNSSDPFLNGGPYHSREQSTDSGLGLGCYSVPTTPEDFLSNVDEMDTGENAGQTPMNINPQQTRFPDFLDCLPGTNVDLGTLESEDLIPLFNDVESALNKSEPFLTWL

The target of experiment [1] is SMAD4, endogenous (human (endogenous in HUAEC)) (UniProt Q13485). Briefly: co-IP.
In experiment [2] the target is SMAD7, endogenous (human (endogenous in HUAEC)) (UniProt O15105). As to the kind of experiment: co-IP.
The target in experiment [3] is activin receptor-like kinase-1 (ALK1), endogenous (human (endogenous in HUAEC)) (UniProt P37023). As to the kind of experiment: co-IP.
Experiment [4] deals with T1, endoglin, endogenous (human (endogenous in HUAEC)) (UniProt P17813).
T1 sequence: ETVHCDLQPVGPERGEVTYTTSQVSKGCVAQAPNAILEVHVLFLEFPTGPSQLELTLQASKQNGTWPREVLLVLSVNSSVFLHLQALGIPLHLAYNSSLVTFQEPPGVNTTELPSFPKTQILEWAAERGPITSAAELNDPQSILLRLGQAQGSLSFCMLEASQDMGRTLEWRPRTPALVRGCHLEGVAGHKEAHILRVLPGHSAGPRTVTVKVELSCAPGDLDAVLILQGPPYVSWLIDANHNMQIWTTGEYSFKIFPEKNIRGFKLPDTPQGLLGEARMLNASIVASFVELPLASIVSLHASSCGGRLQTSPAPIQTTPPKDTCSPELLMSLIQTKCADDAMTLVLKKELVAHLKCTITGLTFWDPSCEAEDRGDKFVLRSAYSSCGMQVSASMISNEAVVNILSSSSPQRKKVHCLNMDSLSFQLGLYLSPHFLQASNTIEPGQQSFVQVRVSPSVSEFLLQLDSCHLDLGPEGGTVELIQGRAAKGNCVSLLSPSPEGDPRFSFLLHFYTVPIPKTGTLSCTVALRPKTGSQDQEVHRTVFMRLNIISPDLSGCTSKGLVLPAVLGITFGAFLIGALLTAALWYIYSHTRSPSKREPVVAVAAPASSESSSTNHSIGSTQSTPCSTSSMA
As to the kind of experiment: co-IP.

In experiment [5] the target is phosphorylated (p)TAZ, endogenous (human (endogenous in HUAEC)) (UniProt Q9GZV5). As to the kind of experiment: co-IP.
The target of experiment [6] is SMAD4, endogenous (human (endogenous in HUAEC)) (UniProt Q13485). As to the kind of experiment: proximity ligation.
Experiment [7] concerns the target FLAG-SMAD4 (UniProt Q13485). Briefly: co-IP.

B1: protein tyrosine phosphatase non-receptor, type 14 (PTPN14), endogenous (protein, UniProt Q15678 1-1187)
chain: MPFGLKLRRTRRYNVLSKNCFVTRIRLLDSNVIECTLSVESTGQECLEAVAQRLELRETHYFGLWFLSKSQQARWVELEKPLKKHLDKFANEPLLFFGVMFYVPNVSWLQQEATRYQYYLQVKKDVLEGRLRCTLDQVIRLAGLAVQADFGDYNQFDSQDFLREYVLFPMDLALEEAVLEELTQKVAQEHKAHSGILPAEAELMYINEVERLDGFGQEIFPVKDNHGNCVHLGIFFMGIFVRNRIGRQAVIYRWNDMGNITHNKSTILVELINKEETALFHTDDIENAKYISRLFATRHKFYKQNKICTEQSNSPPPIRRQPTWSRSSLPRQQPYILPPVHVQCGEHYSETHTSQDSIFHGNEEALYCNSHNSLDLNYLNGTVTNGSVCSVHSVNSLNCSQSFIQASPVSSNLSIPGSDIMRADYIPSHRHSAIIVPSYRPTPDYETVMRQMKRGILHTDSQSQSLRNLNIINTHAYNQPEDLVYSQPEMRERHPYTVPYGPQGVYSNKLVSPSDQRNPKNNVVPSKPGASAISHTVSTPELANMQLQGSHNYSTAHMLKNYLFRPPPPYPRPRPATSTPDLASHRHKYVSGSSPDLVTRKVQLSVKTFQEDSSPVVHQSLQEVSEPLTATKHHGTVNKRHSLEVMNSMVRGMEAMTLKSLHLPMARRNTLREQGPPEEGSGSHEVPQLPQYHHKKTFSDATMLIHSSESEEEEEEAPESVPQIPMLREKMEYSAQLQAALARIPNKPPPEYPGPRKSVSNGALRQDQASLPPAMARARVLRHGPAKAISMSRTDPPAVNGASLGPSISEPDLTSVKERVKKEPVKERPVSEMFSLEDSIIEREMMIRNLEKQKMAGLEAQKRPLMLAALNGLSVARVSGREENRVDATRVPMDERFRTLKKKLEEGMVFTEYEQIPKKKANGIFSTAALPENAERSRIREVVPYEENRVELIPTKENNTGYINASHIKVVVGGAEWHYIATQGPLPHTCHDFWQMVWEQGVNVIAMVTAEEEGGRTKSHRYWPKLGSKHSSATYGKFKVTTKFRTDSVCYATTGLKVKHLLSGQERTVWHLQYTDWPDHGCPEDVQGFLSYLEEIQSVRRHTNSMLEGTKNRHPPIVVHCSAGVGRTGVLILSELMIYCLEHNEKVEVPMMLRLLREQRMFMIQTIAQYKFVYQVLIQFLQNSRLI
In the case of B1, the binding result in experiment [1] is “binds”; in experiment [2] it was “no binding”; in experiment [3] it was “no binding”; in experiment [4] it was “no binding”; in experiment [5], “binds”; in experiment [6], “binds”.

B2: V5-PTPN14 wild type (protein, UniProt Q15678 1-1187)
chain: B1 chain
As to B2, in experiment [7], the binding result was “binds”.

The values are drawn from doi:10.1101/2021.09.29.462397.
